Among the data in publication PMC5312389 are binding values, retold here.

The chains behind the UniProt entries cited, without tags or fusion partners. Where a name states a change or a piece, a line headed by the entry shows the natural chain unless it says otherwise.
UniProt Q09472: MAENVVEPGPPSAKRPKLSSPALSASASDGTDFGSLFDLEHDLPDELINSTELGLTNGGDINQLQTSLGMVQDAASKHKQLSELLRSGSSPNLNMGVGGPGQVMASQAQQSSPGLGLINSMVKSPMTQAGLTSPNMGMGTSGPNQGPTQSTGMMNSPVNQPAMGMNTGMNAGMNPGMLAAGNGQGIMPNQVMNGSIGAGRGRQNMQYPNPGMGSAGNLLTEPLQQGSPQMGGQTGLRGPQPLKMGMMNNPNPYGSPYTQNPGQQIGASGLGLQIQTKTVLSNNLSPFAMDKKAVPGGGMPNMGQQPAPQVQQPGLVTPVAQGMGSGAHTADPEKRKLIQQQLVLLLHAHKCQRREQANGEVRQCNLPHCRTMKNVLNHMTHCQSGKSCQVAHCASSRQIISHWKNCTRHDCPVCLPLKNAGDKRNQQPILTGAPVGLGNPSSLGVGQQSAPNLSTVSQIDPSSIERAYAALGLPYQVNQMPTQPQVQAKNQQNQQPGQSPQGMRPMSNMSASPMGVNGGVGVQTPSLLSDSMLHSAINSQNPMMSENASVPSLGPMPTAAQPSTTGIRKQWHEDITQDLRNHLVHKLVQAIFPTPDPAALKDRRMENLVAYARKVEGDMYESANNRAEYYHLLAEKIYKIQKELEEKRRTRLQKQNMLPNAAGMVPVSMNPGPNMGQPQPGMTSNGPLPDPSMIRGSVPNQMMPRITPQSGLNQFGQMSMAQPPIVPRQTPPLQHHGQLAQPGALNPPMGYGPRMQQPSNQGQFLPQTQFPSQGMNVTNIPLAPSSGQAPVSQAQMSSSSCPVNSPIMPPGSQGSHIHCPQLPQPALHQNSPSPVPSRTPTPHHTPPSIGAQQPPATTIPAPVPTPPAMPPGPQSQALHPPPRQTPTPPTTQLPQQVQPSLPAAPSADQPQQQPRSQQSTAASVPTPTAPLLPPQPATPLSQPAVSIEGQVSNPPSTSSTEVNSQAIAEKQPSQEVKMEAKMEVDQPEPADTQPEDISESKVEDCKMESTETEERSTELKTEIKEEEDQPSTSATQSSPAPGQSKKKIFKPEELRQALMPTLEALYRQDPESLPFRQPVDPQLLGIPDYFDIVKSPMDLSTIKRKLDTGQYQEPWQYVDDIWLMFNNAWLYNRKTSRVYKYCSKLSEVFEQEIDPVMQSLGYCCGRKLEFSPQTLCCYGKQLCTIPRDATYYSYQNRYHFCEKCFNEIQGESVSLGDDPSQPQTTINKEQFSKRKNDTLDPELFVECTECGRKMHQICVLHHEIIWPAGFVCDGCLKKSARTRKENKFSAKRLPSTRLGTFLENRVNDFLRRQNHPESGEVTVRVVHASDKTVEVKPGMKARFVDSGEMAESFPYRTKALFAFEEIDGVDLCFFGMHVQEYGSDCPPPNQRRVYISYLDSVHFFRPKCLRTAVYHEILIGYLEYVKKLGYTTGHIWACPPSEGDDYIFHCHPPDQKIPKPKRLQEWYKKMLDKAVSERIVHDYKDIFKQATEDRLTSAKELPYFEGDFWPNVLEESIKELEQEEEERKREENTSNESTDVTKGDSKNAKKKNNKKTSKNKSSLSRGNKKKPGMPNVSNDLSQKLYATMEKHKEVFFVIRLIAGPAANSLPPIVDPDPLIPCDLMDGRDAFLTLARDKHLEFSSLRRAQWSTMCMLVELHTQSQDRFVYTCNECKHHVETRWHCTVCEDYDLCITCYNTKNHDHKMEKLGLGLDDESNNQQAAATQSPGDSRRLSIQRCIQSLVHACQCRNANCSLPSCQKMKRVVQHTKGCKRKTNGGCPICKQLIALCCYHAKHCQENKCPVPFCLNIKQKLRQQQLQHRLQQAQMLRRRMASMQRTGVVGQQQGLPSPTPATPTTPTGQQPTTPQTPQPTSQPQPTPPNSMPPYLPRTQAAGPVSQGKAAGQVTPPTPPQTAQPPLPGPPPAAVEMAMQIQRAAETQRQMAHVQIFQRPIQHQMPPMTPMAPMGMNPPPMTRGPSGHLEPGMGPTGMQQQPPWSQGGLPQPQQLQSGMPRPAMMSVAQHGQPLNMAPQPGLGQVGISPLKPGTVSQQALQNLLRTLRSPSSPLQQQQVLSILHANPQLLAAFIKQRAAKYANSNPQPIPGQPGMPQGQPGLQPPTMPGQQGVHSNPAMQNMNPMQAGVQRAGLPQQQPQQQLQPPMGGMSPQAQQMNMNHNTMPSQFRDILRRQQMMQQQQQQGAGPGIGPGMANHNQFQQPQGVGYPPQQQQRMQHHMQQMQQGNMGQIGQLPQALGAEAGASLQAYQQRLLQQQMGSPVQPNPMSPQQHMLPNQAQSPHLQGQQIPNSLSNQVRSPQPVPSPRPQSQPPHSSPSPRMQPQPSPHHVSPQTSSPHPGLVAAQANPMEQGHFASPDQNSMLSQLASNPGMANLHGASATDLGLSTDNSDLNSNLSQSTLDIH

Changes are numbered by the printed parent chain. No constants are given. Whether binding was seen depends on the method and setting. In cells and extracts the contact can be indirect. Binding can be weak; no strength is given. Sequences can lack the tags named with a protein.

Test [1] deals with T1, FLAG-FOXM1 wild type, expressed in HEK293T cells (UniProt Q08050).
T1 sequence: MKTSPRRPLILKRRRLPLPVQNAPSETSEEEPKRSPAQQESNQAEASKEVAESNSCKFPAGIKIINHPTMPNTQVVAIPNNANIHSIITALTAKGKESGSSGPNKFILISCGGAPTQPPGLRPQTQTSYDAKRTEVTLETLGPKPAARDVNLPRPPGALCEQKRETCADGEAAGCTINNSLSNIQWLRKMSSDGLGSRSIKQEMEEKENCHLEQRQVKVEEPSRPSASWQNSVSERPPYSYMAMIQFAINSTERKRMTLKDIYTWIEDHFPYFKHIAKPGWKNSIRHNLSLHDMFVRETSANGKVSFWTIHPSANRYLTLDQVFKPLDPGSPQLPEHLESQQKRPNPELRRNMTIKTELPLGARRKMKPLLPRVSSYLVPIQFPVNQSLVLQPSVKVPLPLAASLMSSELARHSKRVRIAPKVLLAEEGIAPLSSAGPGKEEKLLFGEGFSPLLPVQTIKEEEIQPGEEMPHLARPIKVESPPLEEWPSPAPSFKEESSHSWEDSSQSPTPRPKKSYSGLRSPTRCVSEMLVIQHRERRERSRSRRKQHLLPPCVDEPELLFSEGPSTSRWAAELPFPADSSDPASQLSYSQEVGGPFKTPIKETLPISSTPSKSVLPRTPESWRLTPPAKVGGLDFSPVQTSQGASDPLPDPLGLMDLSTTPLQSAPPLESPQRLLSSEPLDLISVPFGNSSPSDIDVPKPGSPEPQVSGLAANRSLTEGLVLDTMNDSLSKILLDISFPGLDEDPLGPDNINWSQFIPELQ
The test can be described thus: co-IP; HEK293T cells transfected with FLAG-FOXM1-WT or FLAG-FOXM1-5KR; immunoprecipitation with anti-FLAG, blots with anti-FLAG and anti-p300.

The target in test [2] is T2, FLAG-FOXM1-5KR, expressed in HEK293T cells (UniProt Q08050).
T2 sequence: T1 sequence with K63R, K422R, K440R, K603R, K614R
The description is as above.

For “p300, in HEK293T cells (called CBP in the text on Figure 3D) (from UniProt Q09472)”, the binding result in test [1] and in test [2] was “binds” throughout.
